# Assay results published in PubChem BioAssay AID493014 (National Center for Advancing Translational Sciences (NCATS), 2011).
# Screen size: about 340,000 compounds; about 170 (0.05%) were called active. Inconclusive means that the source gave no clear call. Such entries were picked first, then a sample of the others. The call rests on the fitted dose curve; in most records, active means well fitted inhibition curve with a large enough effect in the signal ratio, with a control signal flat (not every such curve was filed as active); inconclusive means small, poorly fitted or top-dose-only effect, or effect the other way, or a change in a side signal; inactive means flat fitted curve, though single readings scatter; the % refers to the signal ratio. A potency beside an inconclusive call is a rough fit, not a confirmed value.
# Experiment: qHTS Assay to Find Inhibitors of Chronic Active B-Cell Receptor Signaling;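 on activity change, negative = inhibition: plate controls were basal doxycycline-induced cells for no effect and cells given 10 µM MG132 for full effect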
# Settings: ABC-DLBCL IkBa-CBG/CBR reporter, luminescence ratio (green luciferase fused to IkBa over red control in TMD8 lymphoma cells), 4 h; activity change, negative = inhibition: at 46.1 µM (top of the series) unless noted
# How it was run: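 TMD8 human ABC-DLBCL cells with doxycycline-inducible IκBα–green luciferase fusion and unfused red luciferase, in 0.5% FBS medium; compounds up to 46 uM, 4 h at 37C. Green/red luminescence ratio, filter-overlap corrected, fitted to concentration-response curves.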
# Potency means the concentration at half of the fitted maximal effect.
SMILES,"activity change, negative = inhibition",Potency
CC/C(=N\NC(N)=O)c1ccc(OC)c(OC)c1,inconclusive: 2.07%,
O=C(c1ccc(F)cc1)N1CCC(C(=O)N(Cc2ccccc2)c2ccccc2)CC1,inactive,
Cc1cc(C)c2c(-n3cccc3)nn(C)c2n1,inconclusive: 0.0879%,
COc1ccc(N2C(=O)CC(NC3CCCCNC3=O)C2=O)cc1 (stereo unspecified),,"inconclusive: 4.61 µM [falling, partial curve, poor fit]"
Cc1cc(C)cc(NC(=O)C2CCCN2S(=O)(=O)c2cccc3cccnc23)c1 (stereo unspecified),inconclusive: -21.6%,
COc1ccc(OCCn2c(=N)n(CCO)c3ccccc32)cc1,inactive,
COc1ccc(C[C@H]2CN3C(=NC[C@@H]3Cc3ccc(O)cc3)N2C[C@H](C)NC(=O)c2ccc(C)c(Br)c2)cc1,inconclusive: -0.0518%,
CCc1ccc(N2CC(C(=O)N3CCCC3)CC2=O)cc1 (stereo unspecified),inconclusive: -3.98%,
O=C(COC(=O)c1cccc([N+](=O)[O-])c1)c1ccc(OCc2ccccc2)cc1,inconclusive: 1.24%,
C=CCOC(=O)C1=C(C)NC(=S)NC1/C=C/c1ccccc1 (stereo unspecified),inconclusive: 3.28%,
CCc1cc2c(Nc3ccc(O)cc3)nc(C)nc2s1,,"inconclusive: 11.2 µM [falling, partial curve]"
Cc1oc2c(c1C(=O)NCc1cccnc1)C(=O)c1ccccc1C2=O,inconclusive: -8.97%,
CS(=O)(=O)Nc1ccc(C2=NN(C(=O)c3ccco3)C(c3cccc(F)c3)C2)cc1 (stereo unspecified),inconclusive: 6.41%,
O=[N+]([O-])c1ccc(CN2CCCCCC2)s1,inconclusive: 12.2%,
O=C(NC(=S)N1CCN(Cc2ccccc2)CC1)c1ccccc1,inconclusive: 2.69%,
CC1=C(C(=O)O)N2C(=O)C(NC(=O)c3nn(C)cc3[N+](=O)[O-])C2SC1 (stereo unspecified),inactive,
CCOC(=O)/C=C(\C)Nc1cc(C)nn1-c1ccccc1,inconclusive: -18.7%,
COCCCNC(=S)Nc1cccc(S(=O)(=O)NC2=NCCC2)c1,inconclusive: 3.62%,
CCOc1ccc(CN(C)CC(O)COC(c2ccc(OC)cc2)c2ccc(OC)cc2)cc1 (stereo unspecified),inconclusive: -19.7%,
COc1ccccc1NC(=O)c1c(C)nc2ccccc2c1C(=O)O,,"inconclusive: 35.5 µM [falling, single point]"
Cc1ccccc1N(CC(=O)NCCc1ccccc1)C(=O)c1ccc(N2CCCC2)nc1,inconclusive: -1.01%,

SMILES,"activity change, negative = inhibition",Potency
COc1ccc(/C=C/C(=O)NC(=S)NNC(=O)[C@H]2C[C@@H]2c2ccccc2)cc1OC,inconclusive: 2.78%,
O=C(c1ccc(F)cc1)C1CCN(C(=S)Nc2ccc(F)cc2)CC1,inconclusive: -8.63%,
O=C(CSc1nnc(-c2ccccc2)c(-c2ccccc2)n1)Nc1ncc(Cl)cc1Cl,inconclusive: 11.4%,
O=C(CCS(=O)(=O)c1ccccc1)Nc1nc2c(s1)CCCC2,inconclusive: 24.6%,
CC(OC(=O)c1cccs1)C(=O)Nc1nc(-c2ccccc2)cs1 (stereo unspecified),,"inconclusive: 2.91 µM [activator, partial curve]"
Cc1cc(C)n(CCC(=O)N=Nc2c(O)[nH]c3ccc(Br)cc23)n1,inconclusive: 7.27%,
O=C(N/N=C/c1ccc(Cl)cc1)C1CC12CCC2 (stereo unspecified),,"inconclusive: 31.6 µM [falling, single point]"
COc1ccc2oc(C(=O)OCC(=O)NCCc3ccc(S(N)(=O)=O)cc3)c(C)c2c1,inactive,
Cc1ccc(S(=O)(=O)N(CC(=O)NCc2ccc(F)cc2)C(=O)N2CCN(C)CC2)cc1,inactive,
Cc1c(C(=O)N2CCN(CCc3ccccn3)CC2)oc2ccc(Cl)cc12,,"inconclusive: 20 µM [falling, single point]"
COc1cccc(NC(=O)CC2C(=O)NC3CCCCC3N2C(=O)c2ccc(F)cc2)c1 (stereo unspecified),inconclusive: -2.41%,
CCn1cnc2cc(NCc3ccccc3Cl)ccc21,inconclusive: -22.7%,
CCCn1c(=O)c2c(c3ccccc31)OCC(=O)N2,inconclusive: 3.5%,
COc1ccc(NC(=O)c2cccc(OC(F)F)c2)cc1Cl,,"inconclusive: 18.4 µM [falling, partial curve, poor fit]"
O=C(C[n+]1cccc(CNC(=O)c2ccc(OC(F)F)cc2)c1)Nc1ccc(F)cc1,inconclusive: -13.4%,
CC(NC(=O)COC(=O)c1ccccc1SCC(=O)N1CCCC1)c1ccccc1 (stereo unspecified),inconclusive: 2.37%,
CN1CCc2c(sc(/N=C/c3cc(Cl)ccc3O)c2C#N)C1,inconclusive: -20.8%,
COc1ccccc1-c1nc(C#N)c(N2CCCCCC2)o1,,"inconclusive: 29.1 µM [falling, single point]"
CCCNC(=O)c1ccccc1NC(=O)c1ccc(CSc2ccccc2)cc1,inconclusive: 18.6%,
Clc1nc(Nc2ccccc2)nc(Nc2ccccc2)n1,,"inconclusive: 9.2 µM [falling, partial curve, poor fit]"
CCc1cccc(OCC(=O)Nc2cc(Cl)ccc2-n2cncn2)c1,inactive,

SMILES,"activity change, negative = inhibition",Potency
COc1ccc(CCNc2nc(N3CCOCC3)nc(N3CCOCC3)n2)cc1OC,,"inconclusive: 18.4 µM [falling, partial curve, poor fit]"
CCCOc1ccc(CNC(=O)CCC(=O)n2ncc3cc(C)ccc32)cc1,,"inconclusive: 3.55 µM [falling, partial curve, poor fit]"
CCc1nccn1CCC(=O)N1CCc2c([nH]c3ccccc23)C1CC(C)C (stereo unspecified),inconclusive: -17.1%,
C=C(C)CSc1nncn1/N=C/c1ccc(OC)cc1,inactive,
COc1ccc(N2CCN(C(=O)C(=O)c3c(C)n(C)c4ccccc34)CC2)cc1,inconclusive: -4.39%,
CCOc1ccc(N2CC(C(=O)Nc3nnc(C4CCCCC4)s3)CC2=O)cc1 (stereo unspecified),inactive,
CCOC(=O)n1c(=O)n(Cc2ccc(Cl)cc2Cl)c2ccccc21,inactive,
COc1ccnc(CSC(N)=Nc2ccccc2OC)c1,,"inconclusive: 29.1 µM [falling, single point]"
COc1ccc(C(C)=O)cc1CSc1ccc(S(=O)(=O)N2CCOCC2)cn1,inactive,
CN(C(=O)c1cccs1)c1ccccc1C(=O)O,inconclusive: 13.1%,
O=C(NCc1ccc(F)cc1Cl)c1ccc(CSCc2ccccc2Cl)o1,inactive,
Cc1ccccc1NS(=O)(=O)c1ccc(NC(=O)CSCc2ccc(Br)cc2)cc1,inconclusive: 17.7%,
CCSc1nnc(CNC(=O)C23CC4CC(CC(C4)C2)C3)n1Cc1ccccc1,inconclusive: 13.8%,
CCOC(=O)c1sc(NC(=O)C2CC2)cc1C,inactive,
O=C(NN=Cc1ccccc1C(=O)O)c1ccc(NS(=O)(=O)c2cccs2)cc1,,"inconclusive: 13 µM [falling, partial curve]"
CCCCN1C(=O)/C(=C2\SC(N3CCCCC3)=NC2=O)c2ccccc21,inactive,
C/C(=N\NC(=O)CC(C)C)c1ccc(N2CCCCC2)cc1,inconclusive: -1.91%,
O=C(OCc1ccc([N+](=O)[O-])cc1)c1cc([N+](=O)[O-])ccc1N1CCOCC1,inconclusive: -1.15%,
Cn1c(=O)n(C)c2cc(NC(=O)CSc3nc4ccccc4c(=O)[nH]3)ccc21,inconclusive: 5.4%,
O=C(c1ccc2nc(N3CCOCC3)sc2c1)N1CCCC1,inconclusive: 10.1%,
CCCCN(C)CC(O)Cn1cc(/C=C/C(=O)c2ccc(OCC)cc2)c2ccccc21 (stereo unspecified),,"inconclusive: 22.4 µM [falling, single point]"

SMILES,"activity change, negative = inhibition",Potency
Cc1ccc(NC(=O)CCSCCC(=O)Nc2ccc(C)c(C)c2)cc1C,,"inconclusive: 25.1 µM [falling, partial curve]"
CSCCCN1CCCC(CO)(Cc2ccc(F)cc2)C1 (stereo unspecified),inconclusive: 5.03%,
CC(=O)C1=C(O)C(=O)N(CCCCCC(=O)O)C1c1ccc(N(C)C)cc1 (stereo unspecified),,"inconclusive: 25.9 µM [falling, single point]"
O=[N+]([O-])c1ccccc1/C=C/C=N/n1c(-c2ccc(Cl)cc2)n[nH]c1=S,inconclusive: 3.58%,
COc1ccc(-n2ncc3c(=O)n(CC(=O)NC(C)C)cnc32)cc1,inactive,
O=C(NCCc1ccccc1)c1ccc(-c2ccccc2Cl)o1,inconclusive: 3.34%,
COc1ccc(C)cc1NC(=O)CNc1ccccc1CN(C)C1CCCCC1,inconclusive: -12%,
Cc1cccc(NC(=O)NC2CCCc3ccccc32)c1 (stereo unspecified),inconclusive: -22.4%,
COc1ccc(N2CCN(C(c3cc(OC)ccc3OC)c3nnnn3Cc3ccco3)CC2)cc1 (stereo unspecified),inactive,
FC(F)(F)c1cccc(NC(=S)NCc2ccccc2)c1,inactive,
O=C(NCc1csc2ccccc12)Nc1cc(Cl)cc(Cl)c1,inconclusive: 4.95%,
COC(=O)C1=CN(C(C)c2ccccc2)C=C(C(=O)OC)C1c1cc(OC)c(OC)c(OC)c1 (stereo unspecified),inconclusive: -10.8%,
CN(CCOc1ccc(Cl)cc1)C(=O)c1cc(-c2ccco2)nc2ccccc12,inconclusive: -17%,
CCCCNc1c(-c2cccc(SC3CCCCC3)c2)nc2ccc(Cl)cn12,inconclusive: 28.9%,
Cc1cc(C)n2nc3ccccc3c2n1,inconclusive: 5.35%,
COc1ccc(CCNC(=O)C(=O)Nc2ccc(C)c(C)c2)cc1OC,,"inconclusive: 35.5 µM [falling, single point]"
CC(=O)c1cc(-c2ccccc2)[nH]c1N1CCOCC1,,"inconclusive: 29.1 µM [falling, single point]"
C/C(=N/NC(=O)c1ccc(Cl)s1)c1ccc(NC(=O)COc2ccc(Cl)cc2)cc1,,"inconclusive: 16.4 µM [falling, single point]"

# Gathered by group, those above with an NH in an aromatic ring (5)
SMILES,"activity change, negative = inhibition",Potency
Cc1cc(C)n(CCC(=O)N=Nc2c(O)[nH]c3ccc(Br)cc23)n1,inconclusive: 7.27%,
CCc1nccn1CCC(=O)N1CCc2c([nH]c3ccccc23)C1CC(C)C (stereo unspecified),inconclusive: -17.1%,
Cn1c(=O)n(C)c2cc(NC(=O)CSc3nc4ccccc4c(=O)[nH]3)ccc21,inconclusive: 5.4%,
O=[N+]([O-])c1ccccc1/C=C/C=N/n1c(-c2ccc(Cl)cc2)n[nH]c1=S,inconclusive: 3.58%,
CC(=O)c1cc(-c2ccccc2)[nH]c1N1CCOCC1,,"inconclusive: 29.1 µM [falling, single point]"
